From ChEMBL document CHEMBL5696440, “Inhibition of BET recruitment to chromatin as an effective treatment for MLL-fusion leukaemia” (Nature, 2011)

The chains behind the UniProt entries cited, without tags or fusion partners. Where a name states a change or a piece, a line headed by the entry shows the natural chain unless it says otherwise.
UniProt P33261, whole entry: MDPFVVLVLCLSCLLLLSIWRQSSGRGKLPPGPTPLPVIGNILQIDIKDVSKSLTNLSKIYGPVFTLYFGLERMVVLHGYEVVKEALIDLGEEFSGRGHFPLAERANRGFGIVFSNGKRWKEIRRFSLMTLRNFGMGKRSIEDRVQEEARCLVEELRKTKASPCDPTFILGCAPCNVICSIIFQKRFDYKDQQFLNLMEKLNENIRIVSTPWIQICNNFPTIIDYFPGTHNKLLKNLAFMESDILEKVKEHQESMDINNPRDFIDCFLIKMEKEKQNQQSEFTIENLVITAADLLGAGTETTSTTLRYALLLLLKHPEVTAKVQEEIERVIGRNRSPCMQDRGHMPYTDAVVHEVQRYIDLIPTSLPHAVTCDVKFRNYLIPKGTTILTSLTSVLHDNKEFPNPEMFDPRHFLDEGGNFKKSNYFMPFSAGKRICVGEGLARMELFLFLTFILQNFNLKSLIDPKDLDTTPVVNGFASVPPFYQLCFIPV
UniProt P11712, whole entry: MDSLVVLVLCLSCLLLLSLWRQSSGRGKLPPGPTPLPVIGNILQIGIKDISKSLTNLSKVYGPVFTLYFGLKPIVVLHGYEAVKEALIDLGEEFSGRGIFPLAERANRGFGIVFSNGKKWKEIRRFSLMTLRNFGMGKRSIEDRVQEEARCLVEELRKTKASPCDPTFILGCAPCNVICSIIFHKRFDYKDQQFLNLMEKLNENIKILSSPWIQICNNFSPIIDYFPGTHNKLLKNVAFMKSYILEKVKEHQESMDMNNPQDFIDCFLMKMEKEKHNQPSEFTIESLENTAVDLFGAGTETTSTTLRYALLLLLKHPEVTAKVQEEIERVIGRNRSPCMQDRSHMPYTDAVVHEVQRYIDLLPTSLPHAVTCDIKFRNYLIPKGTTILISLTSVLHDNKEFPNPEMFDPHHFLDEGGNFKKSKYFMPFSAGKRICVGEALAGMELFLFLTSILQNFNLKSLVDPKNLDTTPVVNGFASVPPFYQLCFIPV
UniProt Q12809: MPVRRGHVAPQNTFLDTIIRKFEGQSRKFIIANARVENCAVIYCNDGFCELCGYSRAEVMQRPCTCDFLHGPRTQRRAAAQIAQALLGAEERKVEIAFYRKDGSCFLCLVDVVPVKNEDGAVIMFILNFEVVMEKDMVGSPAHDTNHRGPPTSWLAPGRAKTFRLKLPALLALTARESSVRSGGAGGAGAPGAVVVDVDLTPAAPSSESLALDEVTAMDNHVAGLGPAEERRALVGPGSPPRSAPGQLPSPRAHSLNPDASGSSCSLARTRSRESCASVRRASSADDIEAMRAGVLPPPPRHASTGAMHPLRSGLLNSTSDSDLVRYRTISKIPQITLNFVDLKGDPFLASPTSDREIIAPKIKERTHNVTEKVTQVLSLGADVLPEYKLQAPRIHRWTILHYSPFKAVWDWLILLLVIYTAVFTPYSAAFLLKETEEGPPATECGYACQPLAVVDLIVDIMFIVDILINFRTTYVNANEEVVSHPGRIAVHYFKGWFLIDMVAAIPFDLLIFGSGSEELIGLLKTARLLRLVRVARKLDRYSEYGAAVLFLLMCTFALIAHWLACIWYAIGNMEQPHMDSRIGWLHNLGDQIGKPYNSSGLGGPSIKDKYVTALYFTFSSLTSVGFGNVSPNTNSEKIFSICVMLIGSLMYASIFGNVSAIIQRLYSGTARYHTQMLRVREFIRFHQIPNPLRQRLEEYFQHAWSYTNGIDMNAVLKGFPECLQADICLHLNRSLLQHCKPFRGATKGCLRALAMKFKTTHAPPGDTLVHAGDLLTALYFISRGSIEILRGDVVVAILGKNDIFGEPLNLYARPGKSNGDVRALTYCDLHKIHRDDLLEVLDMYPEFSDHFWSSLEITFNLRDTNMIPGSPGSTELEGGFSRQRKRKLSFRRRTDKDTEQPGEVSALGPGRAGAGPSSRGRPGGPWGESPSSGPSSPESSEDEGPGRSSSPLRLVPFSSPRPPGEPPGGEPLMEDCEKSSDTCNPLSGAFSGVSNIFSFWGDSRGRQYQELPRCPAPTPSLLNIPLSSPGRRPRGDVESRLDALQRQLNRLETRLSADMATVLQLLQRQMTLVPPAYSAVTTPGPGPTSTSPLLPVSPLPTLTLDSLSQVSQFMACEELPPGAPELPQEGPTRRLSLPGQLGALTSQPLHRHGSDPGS

What was measured:
Cytochrome P450 2C19 = Cytochrome P450 2C19 (Homo sapiens, UniProt P33261)
Cytochrome P450 2C9 = Cytochrome P450 2C9 (Homo sapiens, UniProt P11712)
[1] = biological target: T1, Voltage-gated inwardly rectifying potassium channel KCNH2 (Homo sapiens, UniProt Q12809)
[2] = biological target: T1, Voltage-gated inwardly rectifying potassium channel KCNH2; remark: listed apart in the source

## CCNC(=O)C[C@@H]1N=C(c2ccc(Cl)cc2)c2cc(OC)ccc2-n2c(C)nnc21 [MOLIBRESIB]
Cytochrome P450 2C19
  IC50: > 50 µM
Cytochrome P450 2C9
  IC50: > 50 µM
[1]
  IC50: 63.1 µM
[2]
  IC50: > 100 µM
